According to PubChem BioAssay AID1347423 (Functional Genomics Laboratory (NCATS/FGL), 2020):
Out of some 52,000 sequences screened, about 210 (0.4%) were called active.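 How the source made its calls: active means gene whose silencing raises cell survival under the drug, median off-target-corrected z-score across its silencing RNAs 2 or more; inactive means the rest.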 This is one part of the list.

Experiment: Resistance to Poly (ADP-Ribose) Polymerase inhibitor: Gene Identification via Genome-wide siRNA Screen
Conditions: mouse BRCA2 R2336H ES cells, olaparib, CellTiter-Glo viability; active compounds read high
Outline: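 Mouse BRCA2 R2336H ES cells were reverse-transfected with siRNA (20 nM final), treated at 48 h with 500 nM olaparib, and read by CellTiter-Glo after 72 h. Scores: MAD-based z per siRNA, median per gene, seed off-target correction.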
For GGCCAUUGCAUUCAUUGAUTT against Dusp9, the z-score was inactive: -0.355. For “CCACAGGGAGACAUGAUAUTT against 2410022L05Rik”, the z-score was inactive: -1.6. With CGUACAAAGGUAGUAUACCTT against Pi4k2a the z-score was inactive: 0.876. For GGAAGAAGCAAAGAGGUCCTT against Foxm1, the z-score was inactive: -0.0681. In the case of GGAAGAAGUGAAGAUCAUUTT against Acoxl, the z-score is reported as inactive: 0.0654. In the case of GGCGAAUUAUUGAAAACGUTT against Actr8, the z-score is reported as active: 3.41. In the case of “GCUAAAGUUGAUUGGAGAGTT against 3010033P07Rik”, the z-score is reported as inactive: -0.694. In the case of GGUUGUUUCACCAAUAGUUTT against Idi1, the z-score is reported as inactive: -0.931. For GGACUGCUUUUUUUACUCATT against Mta2, the z-score was inactive: -0.588. With GCCAACCGUUUUCACAGACTT against Fthfd the z-score was inactive: 0.332. For GCGAAAGCAGCUGUCGGAATT against Nkx3-1, the z-score was inactive: 1.61. For GGCACGUCUCUAUUCAAGATT against Rab21, the z-score was inactive: 0.12. In the case of “GCGAUCUCACGAGGACUAATT against 9630033F20Rik”, the z-score is reported as inactive: -2.07. With GGCCACCAAGACCAAUGAUTT against Akap8 the z-score was inactive: 0.631. In the case of GCCAAAUCAGGGACUGCUATT against Prkaa1, the z-score is reported as inactive: -1.04. For GGACAGUGCCACUUAAACCTT against Tbxa2r, the z-score was inactive: 0.769. For GACUGUGUUUAUUCCUCUGTT against Olfr1450, the z-score was inactive: -0.283. In the case of GGACCCAGAUGUGACUGAGTT against Svil, the z-score is reported as inactive: 0.0266. With GGGUAGGAAACAAACACAGTT against Cox11 the z-score was inactive: 0.188. In the case of GGAGACAGAAAGAGAAAAGTT against Pou3f2, the z-score is reported as inactive: -0.945. In the case of GGUGAACCAAAGACACUUCTT against Pcdhgc4, the z-score is reported as inactive: -1.39. In the case of GCUGGAGAUUCGUUACCGCTT against Cxxc1, the z-score is reported as inactive: 0.0186. With “GGAUUUUGGGAAUAGAACUTT against 5830458K16Rik” the z-score was inactive: -0.367. For GGAAAUCUUUCUGACAGUCTT against Atoh8, the z-score was inactive: -0.959. For GCUCUACUUGUAUAUGCCCTT against Rdhe2, the z-score was inactive: 1.22. For GCUAACCAAAGUUUUGAGATT against Rbm11, the z-score was inactive: 1.06. In the case of GGAGGUAGUAGAUUCUUCCTT against Dnase1l1, the z-score is reported as inactive: -0.332. With AGAUGAUGAAAGCUUCUGCTT against Cyp2c40 the z-score was inactive: 0.442. For GGGAGAAAAUUGGCUUAGATT against Dclre1b, the z-score was inactive: -0.067. In the case of CCAGGGUAUAGUUUUCAACTT against BC027344, the z-score is reported as inactive: 0.568. In the case of “CCAGGAAUCUGAGAUGAUGTT against 1600002K03Rik”, the z-score is reported as inactive: 0.928. With “GGAACUAUACCAAAGGCAATT against B230363K08Rik” the z-score was inactive: 0.116. In the case of GGGUCUGUUAUCUAAUCAGTT against Tk2, the z-score is reported as inactive: 0.574. For CCAUACCUCCAAGUACUUGTT against Itgal, the z-score was inactive: -0.666. With GCCCUUUACAAGGUUCUGUTT against Slc35f3 the z-score was inactive: -0.719. In the case of CCGCUUCAGAUCUUUCGAGTT against Dcamkl1, the z-score is reported as inactive: -0.195. For GCUAAAGGUGUGGUCUUUGTT against Cyp2d13, the z-score was inactive: 0.922. In the case of CCAGUAACUCAUGGUGCCUTT against MapKapk3, the z-score is reported as inactive: 2.11. With GGCCAACAUCUGCUAUGUCTT against Hao3 the z-score was inactive: 0.175. With GGAAACUUGUUCAUGAUUGTT against Olfr1023 the z-score was inactive: -0.934. For CCAAGUUGUAUUAAAGUCUTT against Nfs1, the z-score was inactive: 0.485. In the case of GCUUUAGUGACGGCUCGAATT against Zfp29, the z-score is reported as inactive: 1.01. For GGAGUCUUCAGGAAGAAAGTT against Rars, the z-score was inactive: -1.31. For GGUGCUGUCAUUUGAAUUCTT against Atp13a, the z-score was inactive: -0.0626. For GGUGUAGCUGUGGUGGGUATT against Olfr360, the z-score was inactive: -1.33. In the case of GGAAGCAGUUCAUGUUAAGTT against Dtx4, the z-score is reported as inactive: -0.106. In the case of “GGUUGAAAAGUAUCAAAGATT against 3000003F02Rik”, the z-score is reported as inactive: 0.203. With GGCCAUAUACUGGGCUAUATT against Skiv2l the z-score was inactive: -2.19. In the case of GGCAUAUGCCAGUAUCGGUTT against Defb8, the z-score is reported as inactive: -0.753. With “GGCACUUGGAGGUAGUUUCTT against C330027C09Rik” the z-score was inactive: -0.493. With CCAAAUGCGAUUUUAUAACTT against Trps1 the z-score was inactive: 2.73. For GGUUGGUUUUGUGUUUGCUTT against Pitx1, the z-score was inactive: 1.21. For GCCAUAUCAACUCAGAUCATT against Ssh2, the z-score was inactive: 1.91. With GCAGCUCCCAAUCUCACUUTT against LOC545554 the z-score was inactive: 0.0848. With GGCAGUAAUAGGAGACCAUTT against Ces3 the z-score was inactive: 0.171. In the case of “GGACAAUGUUGAAUCCUGUTT against 2810430M08Rik”, the z-score is reported as inactive: -0.454. With CCAGAAAGAACCUGCCGUATT against Tdgf1 the z-score was inactive: 0.569. With GGUUUGUCUCAGAGAUUGUTT against Aloxe3 the z-score was inactive: 1.14. With GCUUUGCAUAUGAUUCUACTT against Nt5c2 the z-score was inactive: -0.137. In the case of GGAACGAAGUCCCUAAAGATT against Csf3, the z-score is reported as inactive: -0.606. In the case of “GCCUUAACCACAAUUAAAATT against 4930469P12Rik”, the z-score is reported as inactive: 0.613. With GGAGCAAUUCUACCGCUACTT against Fbxw5 the z-score was inactive: 0.81. For GGAUUCCAUCUUUGUAUGATT against BC009118, the z-score was inactive: 0.0699. With GCUAAUGACGCGAUAGCCUTT against Gtf2b the z-score was inactive: 0.314. In the case of GCGAUGACCUUGUUCGGAUTT against F10, the z-score is reported as inactive: 1.23. For GGUGCCUGUCAUUAAAAUGTT against Lenep, the z-score was inactive: -1.51. For GGUAGACGGAAUCUAUUUATT against Kcnj15, the z-score was inactive: 0.149. With GCCAGUAUGACUAGUCGUGTT against Oprk1 the z-score was inactive: 0.904. In the case of GAAUCCCUUCGAGUACGACTT against Fxyd2, the z-score is reported as inactive: -0.139. For GGCUGAAUCACCAGAACAUTT against Ikbke, the z-score was inactive: -1. With GGUUCUGUCUAUUCUGCACTT against Slco4a1 the z-score was inactive: 2.28. In the case of CGGUGAUAACAGACAUUAATT against Aldh8a1, the z-score is reported as inactive: -1.22. For “CCAGAAACUCGCAUAUCACTT against 4732495E13Rik”, the z-score was inactive: 0.552. In the case of GCUAAAGGACCUGAAAUGGTT against Gas8, the z-score is reported as inactive: 0.817. For GCAGGACAUCUAAAUCUCUTT against Fgfbp1, the z-score was inactive: 0.215. For GCAGUUAAUGCCAACAGUCTT against Ep400, the z-score was inactive: -1.22. For GCAGAACACCGCUGGAAGUTT against Pard3, the z-score was inactive: 1.66. In the case of GGGUUGUAGAUGCGUGGAATT against BC042549, the z-score is reported as inactive: 0.822. In the case of GGACGUGUACAUUGUCAAGTT against Unc5a, the z-score is reported as inactive: 1.24. For GGAUGUCUGACACAAGUGUTT against Olfr390, the z-score was inactive: -2.8. With CGUAGCAACUUGUUUCUCUTT against AK122525 the z-score was inactive: 3.77. For GUUCAUCCCGUAUCACCACTT against Cox6a2, the z-score was inactive: 1.66. For “GCAAAUCGAGGACAGAAUUTT against Kiaa0298-hp”, the z-score was inactive: -0.177. With GGAUCAGUGGACAAAAUAUTT against Uqcrb the z-score was inactive: -2.14. For GGAAGCUCUUCAACUCUACTT against Vps4b, the z-score was inactive: 0.791. In the case of “GGACUGCAUUCCUCUGAUCTT against B930018B01”, the z-score is reported as inactive: -0.49. In the case of GGAUGUUCCAUAUUAUACCTT against Adamdec1, the z-score is reported as inactive: -0.236. With GGACAAAGAUGAAAUCCGATT against Btbd3 the z-score was inactive: -0.0353. In the case of GCCAAAUAAUCUGAAAGCCTT against Rpl28, the z-score is reported as inactive: 0.739. For GGACAAUAGAUCGUCACUUTT against AV249152, the z-score was inactive: -0.91. With GGAAAUGAUCGAAAUGGCCTT against Pou2f3 the z-score was inactive: 0.949. With GGAAGAGCAGCAGAUGAAATT against Prodh the z-score was inactive: -0.297. In the case of CCUAUACACCCAUUUUUAATT against Arl2bp, the z-score is reported as inactive: 0.324. In the case of GCAGACAGUAAAUUGGUAATT against BC037703, the z-score is reported as inactive: -1.02. For CGCCAGAUGGACUUCAUCATT against Slc6a8, the z-score was inactive: -0.0271. In the case of GGUCUAUGCCAGUUUUGCATT against Tegt, the z-score is reported as inactive: 0.645. For CGAUGUAAAGAGCUGGUAGTT against Zdhhc13, the z-score was inactive: 0.68. For “UGAUAGUCUCCACUAAAUUTT against 4930549O06”, the z-score was inactive: 0.0181. For CCUGCAUAUUGGAUUAAUATT against AW050020, the z-score was inactive: 0.835. For GCCGCUAUCGUCUUUAUCATT against Ptk7, the z-score was inactive: 0.37. In the case of GCUCCAAUGUGGUUGAGCATT against Olfr531, the z-score is reported as inactive: -0.936. With “GGAAUAUUGCUAAACACAATT against 1700025G04Rik” the z-score was inactive: 0.326. In the case of GGAACUUAUCCGGUUUGAUTT against Limk1, the z-score is reported as inactive: 0.583. In the case of “CCUACGAGUUGUUAAGGACTT against 9130207N01”, the z-score is reported as inactive: -0.334. In the case of GGUAUUGAAAAAGCUUUUCTT against Rragc, the z-score is reported as inactive: -0.14.
